# Data published in the supplement of paper PMC11438910.
# This is one part of the list. Only a few entries rise above the background.
# Key:
# Test in all cases: fluorescence intensity of antibody binding to polysaccharide-coupled beads; higher = stronger binding
# [1] = biological target: pneumococcal polysaccharide Pn47A
# Experimental: (§1)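 Recombinant rhesus-murine chimeric IgG1 antibodies were tested against antigen-coupled MagPlex beads in a 96-plex Luminex direct immunoassay (dLIA). The beads carried pneumococcal capsular polysaccharides of 93 serotypes plus C-polysaccharides. Antibody was added at 0.1–12,500 ng/mL for 1 h, then PE anti-mouse IgG, and net MFI was read on a Bio-Plex 3D. Only the rhesus variable regions are printed; constant regions are murine IgG1/kappa/lambda, and the signal peptide is MGWSCIILFLVATATGVHS.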
# [2] = biological target: pneumococcal polysaccharide Pn47F
# Experimental: as §1
# [3] = biological target: pneumococcal polysaccharide Pn48
# Experimental: as §1
# [4] = biological target: pneumococcal polysaccharide Pn5
# Experimental: as §1
# [5] = biological target: pneumococcal polysaccharide Pn6A
# Experimental: as §1
# [6] = biological target: pneumococcal polysaccharide Pn6B
# Experimental: as §1
# [7] = biological target: pneumococcal polysaccharide Pn6C
# Experimental: as §1
# [8] = biological target: pneumococcal polysaccharide Pn6D
# Experimental: as §1
# [9] = biological target: pneumococcal polysaccharide Pn7A
# Experimental: as §1
# [10] = biological target: pneumococcal polysaccharide Pn7B
# Experimental: as §1
# [11] = biological target: pneumococcal polysaccharide Pn7C
# Experimental: as §1
# [12] = biological target: pneumococcal polysaccharide Pn7F
# Experimental: as §1
# [13] = biological target: pneumococcal polysaccharide Pn8
# Experimental: as §1
# [14] = biological target: pneumococcal polysaccharide Pn9A
# Experimental: as §1
# [15] = biological target: pneumococcal polysaccharide Pn9L
# Experimental: as §1
# [16] = biological target: pneumococcal polysaccharide Pn9N
# Experimental: as §1
# [17] = biological target: pneumococcal polysaccharide Pn9V
# Experimental: as §1
# [18] = antibody concentration 2337.65 ng/mL
# [19] = antibody concentration 12500 ng/mL
# [20] = antibody concentration 0.1 ng/mL
# [21] = antibody concentration 0.534724 ng/mL
# [22] = antibody concentration 2.8593 ng/mL
# [23] = antibody concentration 15.2894 ng/mL
# [24] = antibody concentration 81.7561 ng/mL
# [25] = antibody concentration 437.17 ng/mL
binder,measurement,setting,value
4-173.1 (protein) chain 1: QLQLQESGPGLVKPSETLSLTCAVSGASISSNYWSWIRQAPGKGLEWIGRISGSSGSTDYNPSLKSRVTISTDTSKNQFSLKLNSVTAADTAVYYCARVSYWGHYGDYWGQGVLVTVSS chain 2: QPVLTQPSSHSASPGAPARLTCTLSSGFSVGDFWIRWYQQKPGSPPRYLLYYHSDSDKHQGSGVPSRFSGSNDASANAGILHISGLQPEDEADYYCCTWHGNSKTQIFGAGTRLTVL,fluorescence intensity,[1]; [18],18.2 MFI
same,fluorescence intensity,[1]; [19],20 MFI
same,fluorescence intensity,[2]; [20],12.5 MFI
same,fluorescence intensity,[2]; [21],12.5 MFI
same,fluorescence intensity,[2]; [22],13 MFI
same,fluorescence intensity,[2]; [23],12.5 MFI
same,fluorescence intensity,[2]; [24],13.5 MFI
same,fluorescence intensity,[2]; [25],12.5 MFI
same,fluorescence intensity,[2]; [18],14.8 MFI
same,fluorescence intensity,[2]; [19],22.5 MFI
same,fluorescence intensity,[3]; [20],21 MFI
same,fluorescence intensity,[3]; [21],20.5 MFI
same,fluorescence intensity,[3]; [22],20.5 MFI
same,fluorescence intensity,[3]; [23],23 MFI
same,fluorescence intensity,[3]; [24],21.2 MFI
same,fluorescence intensity,[3]; [25],23.5 MFI
same,fluorescence intensity,[3]; [18],24.8 MFI
same,fluorescence intensity,[3]; [19],35.5 MFI
same,fluorescence intensity,[4]; [20],9.5 MFI
same,fluorescence intensity,[4]; [21],9.5 MFI
same,fluorescence intensity,[4]; [22],10.5 MFI
same,fluorescence intensity,[4]; [23],9 MFI
same,fluorescence intensity,[4]; [24],9.5 MFI
same,fluorescence intensity,[4]; [25],10 MFI
same,fluorescence intensity,[4]; [18],12.5 MFI
same,fluorescence intensity,[4]; [19],24 MFI
same,fluorescence intensity,[5]; [20],22 MFI
same,fluorescence intensity,[5]; [21],22 MFI
same,fluorescence intensity,[5]; [22],22.5 MFI
same,fluorescence intensity,[5]; [23],21.2 MFI
same,fluorescence intensity,[5]; [24],22 MFI
same,fluorescence intensity,[5]; [25],23.5 MFI
same,fluorescence intensity,[5]; [18],24 MFI
same,fluorescence intensity,[5]; [19],30.8 MFI
same,fluorescence intensity,[6]; [20],19 MFI
same,fluorescence intensity,[6]; [21],20.8 MFI
same,fluorescence intensity,[6]; [22],21.8 MFI
same,fluorescence intensity,[6]; [23],19.2 MFI
same,fluorescence intensity,[6]; [24],20 MFI
same,fluorescence intensity,[6]; [25],22 MFI
same,fluorescence intensity,[6]; [18],23.2 MFI
same,fluorescence intensity,[6]; [19],30 MFI
same,fluorescence intensity,[7]; [20],26.5 MFI
same,fluorescence intensity,[7]; [21],43 MFI
same,fluorescence intensity,[7]; [22],71 MFI
same,fluorescence intensity,[7]; [23],70.8 MFI
same,fluorescence intensity,[7]; [24],77.8 MFI
same,fluorescence intensity,[7]; [25],63 MFI
same,fluorescence intensity,[7]; [18],90.2 MFI
same,fluorescence intensity,[7]; [19],88.5 MFI
same,fluorescence intensity,[8]; [20],16.5 MFI
same,fluorescence intensity,[8]; [21],18.5 MFI
same,fluorescence intensity,[8]; [22],15.5 MFI
same,fluorescence intensity,[8]; [23],17.8 MFI
same,fluorescence intensity,[8]; [24],17 MFI
same,fluorescence intensity,[8]; [25],15.2 MFI
same,fluorescence intensity,[8]; [18],18.8 MFI
same,fluorescence intensity,[8]; [19],22.8 MFI
same,fluorescence intensity,[9]; [20],21 MFI
same,fluorescence intensity,[9]; [21],19.5 MFI
same,fluorescence intensity,[9]; [22],21.5 MFI
same,fluorescence intensity,[9]; [23],20.8 MFI
same,fluorescence intensity,[9]; [24],20 MFI
same,fluorescence intensity,[9]; [25],23.2 MFI
same,fluorescence intensity,[9]; [18],27.2 MFI
same,fluorescence intensity,[9]; [19],81.5 MFI
same,fluorescence intensity,[10]; [20],16.5 MFI
same,fluorescence intensity,[10]; [21],17 MFI
same,fluorescence intensity,[10]; [22],18.2 MFI
same,fluorescence intensity,[10]; [23],17.5 MFI
same,fluorescence intensity,[10]; [24],16.8 MFI
same,fluorescence intensity,[10]; [25],16.5 MFI
same,fluorescence intensity,[10]; [18],19.2 MFI
same,fluorescence intensity,[10]; [19],28 MFI
same,fluorescence intensity,[11]; [20],16.5 MFI
same,fluorescence intensity,[11]; [21],17.5 MFI
same,fluorescence intensity,[11]; [22],20.2 MFI
same,fluorescence intensity,[11]; [23],16 MFI
same,fluorescence intensity,[11]; [24],17.5 MFI
same,fluorescence intensity,[11]; [25],18 MFI
same,fluorescence intensity,[11]; [18],17.5 MFI
same,fluorescence intensity,[11]; [19],25 MFI
same,fluorescence intensity,[12]; [20],14 MFI
same,fluorescence intensity,[12]; [21],15.5 MFI
same,fluorescence intensity,[12]; [22],15.5 MFI
same,fluorescence intensity,[12]; [23],15.5 MFI
same,fluorescence intensity,[12]; [24],16 MFI
same,fluorescence intensity,[12]; [25],17 MFI
same,fluorescence intensity,[12]; [18],20.5 MFI
same,fluorescence intensity,[12]; [19],52.2 MFI
same,fluorescence intensity,[13]; [20],22.5 MFI
same,fluorescence intensity,[13]; [21],22.5 MFI
same,fluorescence intensity,[13]; [22],22.5 MFI
same,fluorescence intensity,[13]; [23],22.5 MFI
same,fluorescence intensity,[13]; [24],22 MFI
same,fluorescence intensity,[13]; [25],24 MFI
same,fluorescence intensity,[13]; [18],28.5 MFI
same,fluorescence intensity,[13]; [19],34.5 MFI
same,fluorescence intensity,[14]; [20],20 MFI
same,fluorescence intensity,[14]; [21],21 MFI
same,fluorescence intensity,[14]; [22],19.5 MFI
same,fluorescence intensity,[14]; [23],18.5 MFI
same,fluorescence intensity,[14]; [24],19.5 MFI
same,fluorescence intensity,[14]; [25],19.5 MFI
same,fluorescence intensity,[14]; [18],21 MFI
same,fluorescence intensity,[14]; [19],32 MFI
same,fluorescence intensity,[15]; [20],18.5 MFI
same,fluorescence intensity,[15]; [21],18.5 MFI
same,fluorescence intensity,[15]; [22],19.5 MFI
same,fluorescence intensity,[15]; [23],17 MFI
same,fluorescence intensity,[15]; [24],19.5 MFI
same,fluorescence intensity,[15]; [25],16.5 MFI
same,fluorescence intensity,[15]; [18],19.5 MFI
same,fluorescence intensity,[15]; [19],25.5 MFI
same,fluorescence intensity,[16]; [20],17 MFI
same,fluorescence intensity,[16]; [21],16 MFI
same,fluorescence intensity,[16]; [22],16 MFI
same,fluorescence intensity,[16]; [23],17.8 MFI
same,fluorescence intensity,[16]; [24],16.5 MFI
same,fluorescence intensity,[16]; [25],16.5 MFI
same,fluorescence intensity,[16]; [18],18.5 MFI
same,fluorescence intensity,[16]; [19],26 MFI
same,fluorescence intensity,[17]; [20],15 MFI
same,fluorescence intensity,[17]; [21],15.5 MFI
same,fluorescence intensity,[17]; [22],15 MFI
same,fluorescence intensity,[17]; [23],16 MFI
same,fluorescence intensity,[17]; [24],15.2 MFI
same,fluorescence intensity,[17]; [25],15 MFI
same,fluorescence intensity,[17]; [18],16.5 MFI
same,fluorescence intensity,[17]; [19],22 MFI

# Reformatted tab-delimited: entries from further up.
binder	measurement	setting	value
4-173.1 (protein) chain 1: QLQLQESGPGLVKPSETLSLTCAVSGASISSNYWSWIRQAPGKGLEWIGRISGSSGSTDYNPSLKSRVTISTDTSKNQFSLKLNSVTAADTAVYYCARVSYWGHYGDYWGQGVLVTVSS chain 2: QPVLTQPSSHSASPGAPARLTCTLSSGFSVGDFWIRWYQQKPGSPPRYLLYYHSDSDKHQGSGVPSRFSGSNDASANAGILHISGLQPEDEADYYCCTWHGNSKTQIFGAGTRLTVL	fluorescence intensity	[11]; [22]	20.2 MFI
same	fluorescence intensity	[11]; [23]	16 MFI
same	fluorescence intensity	[11]; [24]	17.5 MFI
same	fluorescence intensity	[11]; [25]	18 MFI
same	fluorescence intensity	[11]; [18]	17.5 MFI
